Measurements reported in US20150147274A1 (CANCER RESEARCH TECHNOLOGY, published 2015).
Where a chain is given by its changes, count along the chain named. No constants are given. Whether binding was seen depends on the method and setting. Some results given as binding are weak or reduced against the parent protein; the word gives no strength. For some assays here: Tags and fused reporters may be left off the sequences shown.

B1: 108_C9 (scFv, not shown: small tags and cut ends)
scFv: QMQLVQSGAEVKKPGAPVKVSCKVSGYTFTDYYMHWVQQAPGKGLEWMGLVDPEDGETIYAEKFQGRVTITADTSTDTAYMELSSLRSEDTAVYYCATDATTPYWFPRBWGQGTLVTVSSLEGGGGSGGGGSGGGASDIQMTQSPSSLSASVGDRVTITCQASQDISNYLNWYQQKPGRAPKVLIYDASNLETGVPSRFSGSGSGTEFTLTISNLRPDDFATYYCQQGDSFPLTFGGGTKVEIK
B2: 108_F1 (scFv, not shown: small tags and cut ends)
scFv: B1 scFv with B109F
B3: 108_G4 (scFv, not shown: small tags and cut ends)
scFv: B1 scFv with B109F
B4: 109_G9 (scFv, not shown: small tags and cut ends)
scFv: B1 scFv with F106G, P107M, R108Q, B109E
B5: 110_B1 (scFv, not shown: small tags and cut ends)
scFv: B1 scFv with F106G, P107M, R108B, B109L
B6: 110_B10 (scFv, not shown: small tags and cut ends)
scFv: B1 scFv with F106G, P107M, R108B, B109M
B7: 110_84 (scFv, not shown: small tags and cut ends)
scFv: B1 scFv with R108B, B109T
B8: 107_A07 Fab (tagless, native, i.e. not hinged) (Fab, V domains shown)
VH: QMQLVQSGAEVKKPGAPVKVSCKVSGYTFTDYYMHWVQQAPGKGLEWMGLVDPEDGETIYAEKFQGRVTITADTSTDTAYMELSSLRSEDTAVYYCATDATTPYWGMMWWGQGTLVTVSS
VL: DIQMTQSPSSLSASVGDRVTITCQASQDISNYLNWYQQKPGRAPKVLIYDASNLETGVPSRFSGSGSGTEFTLTISNLRPDDFATYYCQQGDSFPLTFGGGTKVEIKR

Biological target: MET928 (cMET protein derived from construct 25-928) (human) (UniProt P08581)
Test: ELISA, soluble scFv

binding, binds:
B1
B2
B3
B4
B5
B6
B7

Biological target: MET515-741 (deglycosylated pepsin fragment of hexahistidine tagged MET741) (human) (UniProt P08581)
Test: complex of MET741-6His and Fab, digested, purified on NiNTA and by gel filtration

binding, binds:
B8
